From PubChem BioAssay AID2685 (National Center for Advancing Translational Sciences (NCATS), 2010)
Some of the results follow. Further columns of the screen follow, without active or inactive calls. The list favours compounds with an active or inconclusive main result. Words in brackets tell the shape of the fitted curve; partial curves, single points and poor fits give uncertain potencies.

Test: qHTS Assay for Lipid Storage Modulators in Drosophila S3 Cells;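 for cell number change: cells counted by Cell Tracker Red CMTPX staining in the red channel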
Conditions: BODIPY lipid droplet fluorescence, 18-24 h; for cell number change: measured here: cell count max response, cells fed with added oleic acid
In short: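 Drosophila S3 cells loaded with oleic acid (400 uM, as added) and compounds at several concentrations; lipid droplets imaged by 488-nm laser-scanning cytometry, 500–530 nm intensity and object ratio to cell channel. Percent activity normalized to 20 uM Triacsin C.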

[1] = measured here: cell number channel AC50, cells fed with added oleic acid
[2] = measured here: lipid fluorescence (Fed channel) AC50, cells fed with added oleic acid

Structure (SMILES) | cell number change | AC50 [1] | AC50 [2]
COC(=O)c1ccccc1NC(=O)CCc1ccccc1 | 32.5% | 10.3 µM [rising, single point] | 16.4 µM [rising, partial curve]
Cc1ccc(NC(=O)Nc2ccc3c(c2)nnn3C)cc1C | 1.94% |  | 
COc1ccc(OC)c(C(C)NC(=S)Nc2ccc(S(=O)(=O)Nc3ncccn3)cc2)c1 (centres undefined) | 41.8% | 35.5 µM [rising, single point] | 
CCOc1ccc(NC(=O)c2ccc(NCC(=O)N3CCCCCC3)cc2)cc1 | 36.9% | 29.1 µM [rising, single point] | 23.1 µM [rising, single point]
C/C(=N\NC(=O)c1ccccc1C)c1cccc([N+](=O)[O-])c1 |  | 0.366 µM [rising, full curve] | 0.517 µM [rising, full curve]
CC(/C=N/NC(=O)Cn1nnc(N)n1)=C\c1ccc(C(C)C)cc1 | -23% |  | 29.1 µM [falling, single point]
O=C(c1ccc(F)cc1)N1CCC(N2CCOCC2)CC1 | -0.636% |  | 5.17 µM [falling, partial curve]
Cc1cc(C(=O)COC(=O)Cc2n[nH]c(=O)c3ccccc23)c(C)n1-c1ccc2c(c1)OCO2 | 0.151% |  | 4.11 µM [rising, partial curve, poor fit]
COc1ccc(N(C(=O)c2ccco2)C(C(=O)NC2CCCC2)c2cc(OC)c(OC)c(OC)c2)cc1 (centres undefined) | -35.5% | 3.66 µM [falling, partial curve, poor fit] | 
CCOC(=O)c1ccc(NC(=O)C2CC(=O)Nc3nc4ccccc4n32)cc1 (centres undefined) | -52.8% | 32.6 µM [falling, single point] | 0.116 µM [rising, full curve, poor fit]
O=C(Nc1ccccc1)Nc1cccc2cccnc12 | 4.24% |  | 0.461 µM [rising, partial curve, poor fit]
Cc1ccc(-c2nc3cnccn3c2Nc2ccccc2)o1 | 11.5% |  | 0.146 µM [rising, full curve, poor fit]
COc1ccc(S(=O)(=O)Nc2ccc3c(c2)OCO3)cc1Cl |  | 2.31 µM [rising, partial curve] | 
CC(C)(C)Nc1nc(Cl)nc(Nc2ccccc2)n1 | -18% |  | 0.231 µM [rising, full curve, poor fit]
COc1ccc([C@H]2CC(=O)C=C(c3ccc(OC)c(OC)c3)C2)cc1 | -46.7% | 4.61 µM [falling, full curve] | 5.17 µM [falling, full curve]
CCSc1nnc(NC(=O)c2c(C)noc2C)s1 | -2.78% |  | 10 µM [falling, single point]
CCCC[C@@H]1CNCCN1CCc1cccc2ccccc12 | -11.7% | 3.26 µM [falling, single point] | 0.184 µM [falling, full curve, poor fit]
O=C1CN(S(=O)(=O)c2cc(C(=O)O)ccc2Cl)c2ccccc2N1 | 6.67% |  | 
O=C(CSc1ccc(C(F)(F)F)cc1[N+](=O)[O-])Nc1ccccc1 |  |  | 0.731 µM [falling, partial curve, poor fit]
O=C(O)c1cc2c([nH]c1=O)CCCC2 | -37.4% | 0.013 µM [falling, full curve, poor fit] | 0.731 µM [falling, full curve]
CC(C)Cn1c(=O)c2c(nc3n2CC(C)CN3Cc2ccccc2)n(C)c1=O (centres undefined) | -18.2% |  | 29.1 µM [falling, single point]
COC(=O)c1ccccc1NC(=O)CSc1nnc(C(C)NC(=O)c2ccc(Cl)cc2Cl)n1C (centres undefined) | 2.42% | 6.51 µM [rising, single point] | 18.4 µM [rising, partial curve]
COc1ccc(OC)c(C(=O)CSc2nnc(-c3ccc(OC)c(OC)c3)o2)c1 | 4.06% |  | 0.00517 µM [falling, full curve, poor fit]
O=C(c1cccc(Cl)c1)N(Cc1ccco1)C1CCS(=O)(=O)C1 (centres undefined) | 22.8% |  | 18.4 µM [rising, single point]
Cc1ccc(SCC(=O)OC(C)C(=O)NC2(C#N)CCCCC2)cc1 (centres undefined) |  |  | 0.517 µM [rising, partial curve, poor fit]
CC(C)(C)NCC(O)COCc1ccc(Cl)cc1 (centres undefined) | -16.5% |  | 0.0651 µM [falling, full curve, poor fit]
CCOC(=O)c1ccc(-n2c(CCC(=O)O)ccc2-c2ccc(F)cc2)cc1 | 11.3% |  | 6.51 µM [rising, single point]
O=c1cc(-c2ccccc2)c2cc(Cl)c(O)c(CN3CCOCC3)c2o1 | 15.5% | 4.11 µM [rising, single point] | 23.1 µM [rising, single point]

Reprinted from the results shown for reference:
Structure (SMILES) | cell number change | AC50 [1] | AC50 [2]
COc1ccc([C@H]2CC(=O)C=C(c3ccc(OC)c(OC)c3)C2)cc1 | -46.7% | 4.61 µM [falling, full curve] | 5.17 µM [falling, full curve]
CCSc1nnc(NC(=O)c2c(C)noc2C)s1 | -2.78% |  | 10 µM [falling, single point]
